# Out of some 400,000 compounds screened, about 13,000 (3.2%) were called active. Inconclusive results, whose numbers are uncertain, are shown with a selection of clear calls. The call rests on the fitted dose curve; in most records, active means well fitted cell-killing curve with a large enough effect; inconclusive means small, poorly fitted or top-dose-only effect, or effect the other way; inactive means flat fitted curve, though single readings scatter. A potency beside an inconclusive call is a rough fit, not a confirmed value.
# Assay: qHTS assay for MDR1-selective chemotherapeutics: Primary screen using the drug-selected MDR subline cells KB-V1; further: nearly all actives have a fitted effect of over 60% in size
# Conditions: KB-V1 MDR cells viability, CellTiter-Glo, 72 h; activity change, negative = cytotoxicity: at 46.1 µM (top of the series)
# How it was run: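 Drug-selected KB-V1 cells, grown in DMEM lacking phenol red with 10% FBS, receive compound titrations; after three days at 37 degrees C, surviving cell ATP is quantified by CellTiter-Glo luminescence and responses normalized and curve-fitted.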
# On the % scale 0 is the no-effect control and ±100 the full control effect; potency means the concentration at half of the fitted maximal effect.
Compound,Potency,"activity change, negative = cytotoxicity"
CCCC(=O)NC1CCCc2c1cnn2-c1ccc(C)c(C)c1 (stereo not given),"inconclusive: 6.51 µM [cytotoxic, partial curve]",–
CCc1ccc(/C=C2\SC(=S)N(CCCC(=O)N(CCO)c3ccccc3)C2=O)cc1,–,inactive: -10.4%
CCOC(=O)[C@@H]1[C@H]2COc3cc(OC)ccc3[C@H]2N2C(=O)N(c3cccc(F)c3)C(=O)[C@]12C,–,inactive: 5.54%
COc1cccc(CSc2nc3ccncc3[nH]2)c1,"inconclusive: 18.4 µM [cytotoxic, single point]",–
CC(=O)c1ccc(N2CCN(C(=O)c3cccc(Oc4ccccc4)c3)CC2)cc1,"inconclusive: 8.2 µM [cytotoxic, partial curve]",–
O=C(NCC1CCCO1)c1ccc(COc2ccc(Br)cc2)cc1 (stereo not given),"inconclusive: 20.6 µM [cytotoxic, partial curve]",–
C/C(Cn1nnc([N+](=O)[O-])n1)=N\NC(=O)c1ccncc1,"inconclusive: 25.9 µM [cytotoxic, single point]",–
Cc1cc(C(=O)NCc2ccccc2)c2c(C)nn(-c3cccc(F)c3)c2n1,"inconclusive: 0.291 µM [rising, full curve]",–
O=C1CCN(S(=O)(=O)c2ccc(Cl)cc2)CC1,"inconclusive: 16.4 µM [rising, single point]",–
Cc1cc(N=Cc2c(O)ccc3ccccc23)no1,"inconclusive: 29.1 µM [cytotoxic, single point]",–
O=C(NCN1CCc2ccccc2C1)c1ccccc1,–,inactive: -18%
CC1CC(C)CN(C(C)C(=O)Nc2cc(S(=O)(=O)N3CCCCC3)ccc2Cl)C1 (stereo not given),–,inactive: -4.83%
Cn1c(N)c(C(=O)COC(=O)c2ccc(Cl)c(S(=O)(=O)N3CCCCC3)c2)c(=O)n(C)c1=O,active: 20.6 µM,–
CCOc1ccc(CCNC(=O)COC(=O)c2nc3nc(C)cc(C)n3n2)cc1OCC,"inconclusive: 9.2 µM [cytotoxic, partial curve, poor fit]",–
COc1cccc(NC(=O)CSc2nc3ccccc3cc2Cc2ccccc2)c1,–,inactive: 0%
Cc1ccc(CN2C(=O)C(Cc3ccccc3)Nc3ncnc(N4CCOCC4)c32)cc1 (stereo not given),–,inactive: 1.99%
COC(=O)c1ccccc1S(=O)(=O)N1CCC(C(=O)OC(C)C(=O)N(C)Cc2ccccc2)CC1 (stereo not given),–,inactive: -28%
Cn1nnnc1SCCNS(=O)(=O)c1ccccc1,–,inactive: -11.5%
CCOC(=O)C1CCN(S(=O)(=O)c2cc(C(=O)N3CCCCC3)ccc2OC)CC1,"inconclusive: 9.2 µM [cytotoxic, partial curve]",–
FC(F)(F)c1ccc(N2CCN(c3ncnc4c3nnn4Cc3ccccc3Cl)CC2)cc1,–,inactive: 11.9%
O=c1cc2c(n[nH]1)-c1ccccc1CC2,"inconclusive: 0.517 µM [cytotoxic, full curve, poor fit]",–
Cc1cc(CCNC=O)c(C)c2c1sc1ccccc12,active: 16.4 µM,–
Cn1cc(S(=O)(=O)c2ccc(Cl)cc2)c(=O)c2cc(F)c(N3CCCCCC3)cc21,–,inactive: 6.98%

# Random excerpt: four entries already listed
Compound,Potency,"activity change, negative = cytotoxicity"
Cn1nnnc1SCCNS(=O)(=O)c1ccccc1,–,inactive: -11.5%
Cc1ccc(CN2C(=O)C(Cc3ccccc3)Nc3ncnc(N4CCOCC4)c32)cc1 (stereo not given),–,inactive: 1.99%
O=c1cc2c(n[nH]1)-c1ccccc1CC2,"inconclusive: 0.517 µM [cytotoxic, full curve, poor fit]",–
CCOc1ccc(CCNC(=O)COC(=O)c2nc3nc(C)cc(C)n3n2)cc1OCC,"inconclusive: 9.2 µM [cytotoxic, partial curve, poor fit]",–

# The listing continues:

Compound,Potency,"activity change, negative = cytotoxicity"
COc1ccc(CNC(=O)c2sc(=O)n(Cc3ccc(C)cc3)c2C)cc1,active: 20.6 µM,–
CC(C)Oc1c(Br)cc(Br)cc1/C=N/NC(N)=S,"inconclusive: 18.4 µM [cytotoxic, single point]",–
O=C(CSc1nnc(-c2cccnc2)o1)Nc1nccs1,"inconclusive: 25.9 µM [cytotoxic, single point]",–
COc1ccc2cnnc(SCC(=O)Nc3ccccc3)c2c1OC,active: 2.91 µM,–
COc1ccc(NC(=O)C2C3CCC4C(CCC32)C4(Cl)Cl)cc1 (stereo not given),–,inactive: -27.9%
CSc1nc2sc3c(c2c(=O)n1CC(C)C)CC(C)(C)OC3,–,inconclusive: 37.7%
Cc1ccc(C(=O)Nc2sc3c(c2C(=O)O)CCCC3)o1,"inconclusive: 29.1 µM [cytotoxic, single point]",–
Cc1nc2c(-c3ccc(Cl)cc3)c(C)[nH]n2c(=O)c1Cc1ccccc1,"inconclusive: 7.31 µM [cytotoxic, partial curve]",–
O=C(Nc1ccc(Cl)cc1)C1CCN(c2nc3ccccc3nc2C(F)(F)F)CC1,"inconclusive: 2.59 µM [cytotoxic, full curve]",–
CC(C(=O)Nc1ccccc1C(=O)N1CCOCC1)N(c1ccc(Cl)cc1)S(C)(=O)=O (stereo not given),"inconclusive: 18.4 µM [cytotoxic, partial curve, poor fit]",–
CCOC(=O)c1ccccc1NC(=O)CSc1nnc(COc2ccccc2C)n1C,"inconclusive: 7.31 µM [cytotoxic, partial curve, poor fit]",–
Cc1nn(C)c(C)c1CN(C)C(=O)c1cnn2c1NC(c1ccccc1)CC2C(F)(F)F (stereo not given),"inconclusive: 9.2 µM [cytotoxic, partial curve]",–
CCOC(=O)CSC1=C(C#N)C(c2ccc3c(c2)OCO3)CC(=O)N1 (stereo not given),"inconclusive: 9.2 µM [cytotoxic, partial curve]",–
CCOc1ccccc1-c1nc(C(N)=O)c2[nH]c(=O)n(-c3cccc(C)c3)c2n1,"inconclusive: 5.17 µM [cytotoxic, full curve]",–
Cc1ccc(/C=C/C2=NN(Cc3ccccc3)C(=O)CC2)cc1,"inconclusive: 23.1 µM [cytotoxic, single point]",–
CCCCOC(=O)Cn1c(=O)c2c(nc(Br)n2Cc2ccccc2)n(C)c1=O,"inconclusive: 23.1 µM [cytotoxic, partial curve]",–
COc1ccc(NS(=O)(=O)c2cccc(NC(=O)c3cnccn3)c2)cc1Br,–,inactive: 5.21%
COc1cccc(CNC(=O)c2cc3c(C)nc4ccccc4c3o2)c1,"inconclusive: 16.4 µM [cytotoxic, partial curve]",–
O=C(NCC1CCCO1)C(c1cccnc1)N(C(=O)Cc1cccs1)c1ccccc1 (stereo not given),"inconclusive: 20.6 µM [cytotoxic, partial curve, poor fit]",–
COc1cc(C(=O)Nc2nc(-c3cccs3)cs2)cc(OC)c1OC,–,inactive: -7.52%
Cc1c(C(=O)NCc2ccc(C#N)cc2)sc(=O)n1Cc1ccccn1,"inconclusive: 20.6 µM [cytotoxic, single point]",–
N#C/C(N=Nc1ccccc1O)=N\Nc1ccccc1O,"inconclusive: 29.1 µM [cytotoxic, single point]",–

# Source: PubChem BioAssay AID1347076 (National Center for Advancing Translational Sciences (NCATS), 2019)
